# Experimental data as given in the supplement of paper PMC8728848.
# The list shows a part of the results.
# Key:
# Test in all cases: glycan array binding signal (z-score within array); higher = stronger binding
# Settings in all cases: glycan notation: IUPAC condensed, linker removed
# [1] = target: Gal(b1-3)[Fuc(a1-4)]GlcNAc
# Procedure, shortened: (§1)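 The Consortium for Functional Glycomics database supplied 3228 glycan arrays, of which those lacking an available protein sequence were dropped. The binding signal, a within-array Z-score, was averaged across arrays of the same protein sequence and across linkers. Negative scores can be read as non-binding.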
# [2] = target: Gal(b1-3)[Fuc(a1-4)]GlcNAc(b1-2)Man
# Procedure, shortened: as §1
# [3] = target: Gal(b1-3)[Fuc(a1-4)]GlcNAc(b1-2)Man(a1-3)[Gal(b1-3)[Fuc(a1-4)]GlcNAc(b1-2)Man(a1-6)]Man(b1-4)GlcNAc(b1-4)GlcNAc
# Procedure, shortened: as §1
# [4] = target: Gal(b1-3)[Fuc(a1-4)]GlcNAc(b1-2)Man(a1-3)[Gal(b1-3)[Fuc(a1-4)]GlcNAc(b1-2)Man(a1-6)]Man(b1-4)GlcNAc(b1-4)[Fuc(a1-6)]GlcNAc
# Procedure, shortened: as §1
# [5] = target: Gal(b1-3)[Fuc(a1-4)]GlcNAc(b1-3)Gal(b1-3)[Fuc(a1-4)]GlcNAc
# Procedure, shortened: as §1
# [6] = target: Gal(b1-3)[Fuc(a1-4)]GlcNAc(b1-3)Gal(b1-4)GlcNAc
# Procedure, shortened: as §1
# [7] = target: Gal(b1-3)[Fuc(a1-4)]GlcNAc(b1-3)Gal(b1-4)[Fuc(a1-3)]GlcNAc
# Procedure, shortened: as §1
# [8] = target: Gal(b1-3)[Fuc(a1-4)]GlcNAc(b1-6)GalNAc
# Procedure, shortened: as §1
# [9] = target: Gal(b1-3)[GlcNAc(b1-6)]GalNAc
# Procedure, shortened: as §1
# [10] = target: Gal(b1-3)[Neu5Ac(a2-6)]GalNAc
# Procedure, shortened: as §1
# [11] = target: Gal(b1-3)[Neu5Ac(a2-6)]GlcNAc(b1-4)Gal(b1-4)Glc
# Procedure, shortened: as §1
# [12] = target: Gal(b1-3)[Neu5Ac(a2-6)]GlcNAc(b1-6)Gal(b1-4)Glc
# Procedure, shortened: as §1
# [13] = target: Gal(b1-3)[Neu5Ac(b2-6)]GalNAc
# Procedure, shortened: as §1
# Gal(b1-4)Gal = target: Gal(b1-4)Gal
# Procedure, shortened: as §1
# [14] = target: Gal(b1-4)GalNAc(a1-3)[Fuc(a1-2)]Gal(b1-4)GlcNAc
# Procedure, shortened: as §1
# [15] = target: Gal(b1-4)GalNAc(b1-3)[Fuc(a1-2)]Gal(b1-4)GlcNAc
# Procedure, shortened: as §1
# Gal(b1-4)Glc = target: Gal(b1-4)Glc
# Procedure, shortened: as §1
# Gal(b1-4)Glc6S = target: Gal(b1-4)Glc6S
# Procedure, shortened: as §1
# Gal(b1-4)GlcNAc = target: Gal(b1-4)GlcNAc
# Procedure, shortened: as §1
# [16] = target: Gal(b1-4)GlcNAc(a1-6)Gal(b1-4)GlcNAc
# Procedure, shortened: as §1
# Gal(b1-4)GlcNAc(b1-2)Man = target: Gal(b1-4)GlcNAc(b1-2)Man
# Procedure, shortened: as §1
# [17] = target: Gal(b1-4)GlcNAc(b1-2)Man(a1-3)Man(b1-4)GlcNAc(b1-4)GlcNAc
# Procedure, shortened: as §1
# [18] = target: Gal(b1-4)GlcNAc(b1-2)Man(a1-3)[Gal(b1-4)GlcNAc(b1-2)Man(a1-6)]Man(b1-4)GlcNAc(b1-4)GlcNAc
# Procedure, shortened: as §1
# [19] = target: Gal(b1-4)GlcNAc(b1-2)Man(a1-3)[Gal(b1-4)GlcNAc(b1-2)Man(a1-6)]Man(b1-4)GlcNAc(b1-4)[Fuc(a1-6)]GlcNAc
# Procedure, shortened: as §1
# [20] = target: Gal(b1-4)GlcNAc(b1-2)Man(a1-3)[Gal(b1-4)GlcNAc(b1-2)Man(a1-6)][Gal(b1-4)GlcNAc(b1-4)]Man(b1-4)GlcNAc(b1-4)[Fuc(a1-6)]GlcNAc
# Procedure, shortened: as §1
# [21] = target: Gal(b1-4)GlcNAc(b1-2)Man(a1-3)[Gal(b1-4)GlcNAc(b1-2)Man(a1-6)][GlcNAc(b1-4)]Man(b1-4)GlcNAc(b1-4)[Fuc(a1-6)]GlcNAc
# Procedure, shortened: as §1
binder,measurement,setting,value
KISKRILTGKK [NK11 (Sus scrofa)],glycan array binding signal (z-score),[1],-0.439
same,glycan array binding signal (z-score),[2],0.171
same,glycan array binding signal (z-score),[3],-1.13
same,glycan array binding signal (z-score),[4],-0.953
same,glycan array binding signal (z-score),[5],-0.425
same,glycan array binding signal (z-score),[6],3.41
same,glycan array binding signal (z-score),[7],-0.524
same,glycan array binding signal (z-score),[8],0.704
same,glycan array binding signal (z-score),[9],-0.651
same,glycan array binding signal (z-score),[10],1.56
same,glycan array binding signal (z-score),[11],-0.206
same,glycan array binding signal (z-score),[12],-0.305
same,glycan array binding signal (z-score),[13],0.115
same,glycan array binding signal (z-score),Gal(b1-4)Gal,-0.422
same,glycan array binding signal (z-score),[14],-1.44
same,glycan array binding signal (z-score),[15],-0.195
same,glycan array binding signal (z-score),Gal(b1-4)Glc,-0.144
same,glycan array binding signal (z-score),Gal(b1-4)Glc6S,0.225
same,glycan array binding signal (z-score),Gal(b1-4)GlcNAc,-0.612
same,glycan array binding signal (z-score),[16],0.093
same,glycan array binding signal (z-score),Gal(b1-4)GlcNAc(b1-2)Man,-0.259
same,glycan array binding signal (z-score),[17],0.233
same,glycan array binding signal (z-score),[18],-0.619
same,glycan array binding signal (z-score),[19],-0.25
same,glycan array binding signal (z-score),[20],-0.533
same,glycan array binding signal (z-score),[21],0.327

# Some of the entries above, set out differently.
binder | measurement | setting | value
KISKRILTGKK [NK11 (Sus scrofa)] | glycan array binding signal (z-score) | [5] | -0.425
same | glycan array binding signal (z-score) | [10] | 1.56
